# Reference: patent US20180008569A1, “PROSTAGLANDIN TRANSPORTER INHIBITORS FOR INHIBITING OVULATION” (TEL HASHOMER MEDICAL RESEARCH INFRASTRUCTURE AND SERVICES …, priority 2015, published 2018)
# The chains behind the UniProt entries cited, without tags or fusion partners.
# UniProt Q9EPT5, whole entry: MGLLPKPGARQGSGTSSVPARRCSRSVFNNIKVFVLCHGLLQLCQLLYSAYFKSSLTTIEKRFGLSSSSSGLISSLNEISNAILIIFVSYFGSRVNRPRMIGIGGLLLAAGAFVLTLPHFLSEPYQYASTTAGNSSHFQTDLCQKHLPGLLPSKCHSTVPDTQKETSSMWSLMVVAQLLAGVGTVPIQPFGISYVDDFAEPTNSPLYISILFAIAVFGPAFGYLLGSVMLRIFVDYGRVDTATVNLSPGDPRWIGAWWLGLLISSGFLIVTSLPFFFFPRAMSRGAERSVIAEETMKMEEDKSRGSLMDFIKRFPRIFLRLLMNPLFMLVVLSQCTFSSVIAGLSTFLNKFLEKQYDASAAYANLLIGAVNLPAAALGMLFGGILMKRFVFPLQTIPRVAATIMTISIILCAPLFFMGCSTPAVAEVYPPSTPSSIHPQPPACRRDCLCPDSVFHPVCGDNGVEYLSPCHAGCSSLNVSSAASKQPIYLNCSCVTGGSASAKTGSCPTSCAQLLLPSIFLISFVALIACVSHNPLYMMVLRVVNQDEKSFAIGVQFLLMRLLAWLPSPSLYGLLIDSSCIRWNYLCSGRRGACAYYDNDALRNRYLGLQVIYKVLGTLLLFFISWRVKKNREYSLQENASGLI
# At least one structure is not confirmed: it was looked up by name or label, or the drawing left a doubt. Marks after values point to notes of the source that are not given here.
# Target: PGT (Mus musculus, UniProt Q9EPT5)
# Test: Ovulated oocyte count in PMSG-primed/hCG-triggered immature female mice
# Assay type: in vivo
# Set-up: from tissue; host or cells: whole animal: PMSG-primed/hCG-triggered immature female mice (ovary)
# Settings: 16 hours
structure (smiles),measurement,setting,value
"Cc1c(C2(c3cc(Br)c(O)c(Br)c3C)OS(=O)(=O)c3ccccc32)cc(Br)c(O)c1Br [BCG, Bromocresol Green]",No. ovulating mice/no. treated,hCG + BCG 250 mg/kg,15/16 (93.8%)
same,No. ovulating mice/no. treated,hCG + BCG 300 mg/kg,3/10 (30%)*
same,No. ovulating mice/no. treated,hCG + BCG 350 mg/kg,0/4 (0%)*
same,No. ovulating mice/no. treated,hCG + BCG 500 mg/kg,0/4 (0%)*
